PubChem BioAssay AID1671195 – Yale University, 2021

Aim: 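Regulators of LDL receptor activity judged by labelled LDL uptake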 (primary screen)
System: human Huh7 hepatoma cells
Knock-down reagent: siRNA pool against human genes, 18 nM
Timing: about 2 to 2.5 days of knockdown, then 8 h LDL uptake
Challenge: DiI-labelled LDL at 30 µg/ml for 8 h, in lipoprotein-deficient serum medium
Detection: 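Fluorescent LDL signal imaged in cells, scaled to the plate median, robust z-score for each replicate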
Scale: robust z-score: higher = more LDL uptake after knockdown
Hit rule: 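a gene counts as active if at least two replicate z-scores exceed ±2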
The deposit covers about 22,000 reagents; below is a part drawn at random. About 1,510 of them (6.9%) were called active. 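Active includes knockdowns raising or lowering LDL uptake; positive z-scores mean more uptake, negative mean less.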 A number with no mark means an inactive call.

Target gene	robust z-score, replicate 1	robust z-score, replicate 2	robust z-score, replicate 3
LYPD4	0.537	0.751	0.508
TMPRSS5	0.295	-0.425	0.44
TMEM17	1.92	1.83	1.16
PLCXD2	-0.548	-1.28	-1.21
TMEM63B	-0.574	-0.648	-0.35
KANK2	-0.44	1.27	-1.25
LINC03040	1.86	1.65	2.19
EGFL7	-0.777	1.19	-1.36
LINC00115	-0.485	-0.14	-0.303
APBA1	-1.38	-0.979	-1.07
LOC388459 (retired record)	0.593	0.824	0.757
ZNF76	0.269	0.375	0.3
ATF3	-0.236	0.152	-0.0483
ANKS1A	-0.21	-1.21	0.24
CHAC2	-0.445	-0.203	-0.414
LRRIQ1	-0.00695	-0.192	0.195
DARS2	-0.0217	-0.137	0.036
LOC442495 (retired record)	0.503	0.523	0.293
PEX10	1.01	1.19	1.05
LOC389252 (retired record)	-0.157	-0.383	-0.0233
TMEM263	0.0181	0.101	-0.512
LOC440750 (retired record)	3.79 (active)	3.26	3.63
IL1B	-0.829	-0.735	-0.591
OR10K2	-0.698	-0.819	-1.36
PCDH7	0.211	0.47	0.485
SBSN	0.465	0.71	0.429
GPR45	0.212	0.0308	-0.558
KIF2C	0.0711	1.03	-0.0421
H2AC20	-0.592	-2.08	-1.71
B3GAT3	0.774	1.01	0.416
CMTR2	-2.17	-0.238	-0.482
NFE2L2	0.22	-0.127	0.0589
NDUFS8	0.373	0.775	0.0715
NMT2	-0.857	-0.0178	-1.05
LOC440985 (retired record)	-0.156	-0.659	-0.644
KRTAP23-1	3.09 (active)	1.73	3.91
FXYD5	-1.71	-1.39	-0.678
H1-7	-0.914	-1.35	-1.35
PPP3CA-DT	-1.85	-1.6	-0.836
NPC1L1	0.142	1.54	-0.244
LOC441786 (retired record)	-0.671	-0.314	0.136
SEPTIN5	-0.72	-0.416	-0.11
AMELY	0.323	-1.09	-0.703
CKMT1B	-0.251	0.281	1.81
CASTOR3P	0.52	0.153	0.552
ZNF607	0.812	0.475	0.0967

A stretch from the list above, as a working copy:
Target gene	robust z-score, replicate 1	robust z-score, replicate 2	robust z-score, replicate 3
CHAC2	-0.445	-0.203	-0.414
LRRIQ1	-0.00695	-0.192	0.195
DARS2	-0.0217	-0.137	0.036
LOC442495 (retired record)	0.503	0.523	0.293
PEX10	1.01	1.19	1.05
LOC389252 (retired record)	-0.157	-0.383	-0.0233
TMEM263	0.0181	0.101	-0.512
